According to patent publication US20050164976A1, “Combination of a cdk inhibitor and 5-fu for the tratment of cancer” (Cyclacel Limited, priority 2002, published 2005):
pIC50: −log10 of the molar value.

Columns and labels:
HT29 cells = assay: cells; details: Homo sapiens, HT-29
Description: Cells were washed in media to inactivate trypsin before reseeding or analysis.

MCF7 cells = assay: cells; details: Homo sapiens
Procedure: MCF7 cells were seeded at 3,000/well in 96 well plates. Cell were allowed to settle overnight, and medium replaced with drug-containing medium the next day. Nine different drug treatments were tested, in triplicate, in each plate.

[1] = tested on: human mammary cancer xenograft MAXF 857; details: 10 μM roscovitine alone

CC[C@H](CO)Nc1nc(NCc2ccccc2)c2ncn(C(C)C)c2n1 [roscovitine, 6-benzylamino-2-[(R)-1-ethyl-2-hydroxyethylamino]-9-isopropylpurine]
pIC50 (HT29 cells): 4.70 | pIC50 (MCF7 cells): 5.00 | relative colony count [1]: 77%
